The values that follow come from the supplement of paper PMC10338343.

± gives the standard deviation. The list shows a part of the results. Many entries were measured with a wide error.

The first assay has as its system EfPiwi piRISC loaded with L1MC piRNA (26 nt). The assay can be described thus: pre-steady-state target cleavage rate (min^-1); guide: L1MC piRNA 5'p-UAACUAAAUACUAUGCAAGCUGUAGG; MIWI and MILI are mouse PIWI proteins and EfPiwi is from a freshwater sponge; tags in brackets are library labels; higher = faster piRNA-guided slicing of the target. Particulars: auxiliary factor: 500 nM Ephydatia muelleri Gtsf1. A digest of the protocol:
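The pre-steady-state cleavage rate was derived from a burst-and-steady-state fit of Cleave-'n-Seq data. For these assays, 1 nM active affinity-purified piRISC loaded with a single synthetic guide was mixed with […] a transcribed, DNA-blocked target RNA library in HEPES–potassium acetate buffer at 33 °C, with or without 500 nM GTSF1 partner protein, for 0–8 or 0–960 min. Sequencing counts of uncleaved targets were normalised to depth and to weakly complementary targets, and k3 was capped at 0.0001 min^-1 after three trials were pooled.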
For the sequence UCCUGGAUGUCGAACGAUAGUAUAAAGUUA, the “pre-steady-state target cleavage rate” value was 0.000143 ± 0.037.

As to UCCUCCUACUCCUUGCAUAGUAUUUAGUAA, the “pre-steady-state target cleavage rate” value worked out at 0.00518 ± 0.0033.

Consider UCCUCCUACAGCUUGCAUAGUAUUUAAGUUA, for which the “pre-steady-state target cleavage rate” value is 0.00943 ± 0.0038.

As to UCCUGGAACAGCCUGCAUAGUAUUUAGUUA, the “pre-steady-state target cleavage rate” value is 0.0144 ± 0.0045.

Turning to UCCUCCUACAGCUUGCUUAGUAUUUAGUUA, the “pre-steady-state target cleavage rate” value was found to be 0.0424 ± 0.012.

On to UCCUGGAUCACCUUGCAUAGUAUUUAGUUA, for which the “pre-steady-state target cleavage rate” value worked out at 0.018 ± 0.0063.

Consider UCCUGGAUGUCGAUGCAUUGUAUUAAGUUA, for which the “pre-steady-state target cleavage rate” value came out at 0.000122 ± 0.027.

For the sequence UCCUGGAUGUGCUUGCAUUGUAUUAAGUUA, the “pre-steady-state target cleavage rate” value is 0.000452 ± 0.0082.

The assay is the same for the next values; noted with them: auxiliary factor: none (no Gtsf1).
For the sequence UCCUGGAUGUCGAACGACAGUAUUUAGUUA, the “pre-steady-state target cleavage rate” value came to 0.000245 ± 0.018.

With UCCUGGAUGUGCUCGCAUAGUAUUUAGUUA, the “pre-steady-state target cleavage rate” value was 0.00133 ± 0.0076.

With UCCUGGAACAGCUUGCAUAGUAUCUUAGUUA, the “pre-steady-state target cleavage rate” value was found to be 0.00177 ± 0.006.

Regarding UCCUGGUACAGCUUGCAUAGUAUUAAGUAA, the “pre-steady-state target cleavage rate” value was determined as 0.000676 ± 0.014.

UCCUGGUACAGCUUGCAUAGUAUAUUAGUUA: the “pre-steady-state target cleavage rate” value was determined as 0.00112 ± 0.012.

Turning to UCCUGCUACAGCUUGCAUACUAUUAAGUUA, the “pre-steady-state target cleavage rate” value is 0.000126 ± 0.03.

Consider UCCUGGAUGAGCUUGCAUAUUAUUUAGUUA, for which the “pre-steady-state target cleavage rate” value amounted to 0.0026 ± 0.0056.

Take UCCUGGAUGUGCUUUCAUAGUAUUUAGUUA: the “pre-steady-state target cleavage rate” value is 0.0005 ± 0.017.
